Experimental data as given in patent US8460635B2, “Fenretinide derivatives and uses thereof as therapeutic, diagnostic and imaging agents” (Albert Einstein College of Medicine of Yeshiva University, priority 2008, dated 2013).
pIC50: −log10 of the molar value. For some of these results: For at least one compound, name, drawing or mass did not settle the structure. Some of these results come from one statement about several compounds together.

Tests used:
[1] = test system: Cyclin D1; experiment: Immunoblot analysis of Cyclin D1 expression; format: cell-based; settings: biomarker expression, Table 3
Experimental: FIG. 5A-5B. Effect of fenretinide, its derivatives and peptidomimetic compounds on expression of Cyclin D1. Immunoblot analysis to determine the effect of fenretinide and its halogen substitutes (A) and peptidomimetic compounds (B). GAPDH is a loading control.
This assay was performed using a routine laboratory protocol as previously described using chemiluminescence detection method (30). The following antibodies were used: polyclonal α-cyclin D1 Ab-3 (NeoMarkers, Cat# RB-010-P0), monoclonal α-cyclin D1 DCS-6 (NeoMarkers, Cat# MS-210-P1), α-β-Actin (Sigma Cat# A5441) and α-Tubulin-α (Sigma, Cat # T5168).
The effects of fenretinide, halogen substitutes, and peptidomimetic derivatives on cell cycle regulation and apoptosis were tested by using: i) cell survival assay (MTS); ii) FACS analysis; and iii) immunoblot analysis to determine the effect on Cyclin D1.

[2] = test system: MON (INI1−/−) rhabdoid tumor cells; experiment: MTS survival assay of rhabdoid tumor cells; format: cell-based; settings: values in text
Experimental: FIG. 1A-1D. Effect of 4HPR derivatives with phenyl group substitutions on survival of rhabdoid tumors cells. MON (INI1−/−) cells were treated with serial dilutions of the 4HPR, ATRA and 4HPR derivatives for three days. Survival assay was carried out as described using MTS assay kit. Percentage of cell survival plotted against concentration of drugs (Mean+/−SEM).
FIG. 2. Effect of fenretinide peptidomimitic derivatives on the survival of rhabdoid tumor cells in culture. % survival of MON rhabdoid tumor cells treated with fenretinide derivatives, when compared to the vehicle treated control. The data in all the panels represent the average of triplicate experiments, and the standard error is indicated.
The rhabdoid cell line (MON) (88) was cultured in RPMI 1640 supplemented with 10% fetal bovine serum, 2 mM L-glutamine, 50 U/ml penicillin, and 50 μg/ml streptomycin at 37° C. with 5% CO2 and 95% humidified air. […]
Aliquots of 8×10^3 MON cells were plated in 96-well microdilution plates. […] After 4 h incubation, the plates were analyzed by an ELISA plate reader (Wallac Victor, 1420 Multilabel Counter, Perkin Elmer) at 490 nm wave-length. […]
Statistical analysis of the data was carried out using GraphPad Prism (San Diego, Calif.). Relative IC50 values were calculated using the nonlinear regression curve fit with sigmoidal dose response (variable slope) function. […]

| Compound | Repression of Cyclin D1 [1] | pIC50 [2] |
| --- | --- | --- |
| CC1=C(/C=C/C(C)=C/C=C/C(C)=C/C(=O)Nc2ccc(F)cc2)C(C)(C)CCC1 [5(a)] | No | – |
| CC1=C(/C=C/C(C)=C/C=C/C(C)=C/C(=O)Nc2ccc(I)cc2)C(C)(C)CCC1 [5(d), (2E,4E,6E,8E)-[3,7-Dimethyl-9-(2,6,6-trimethyl-1-cyclohexenyl)-nona-2,4,6,8-tetraenoylamino]-(4-iodo)phenylamide] | No | – |
| CC1=C(/C=C/C(C)=C/C=C/C(C)=C/C(=O)Nc2ccc(O)cc2O)C(C)(C)CCC1 [5(n), (2E,4E,6E,8E)-[3,7-Dimethyl-9-(2,6,6-trimethyl-1-cyclohexenyl)-nona-2,4,6,8-tetraenoylamino]-(2,4-dihydroxy)phenylamide] | Yes | – |
| (2E,4E,6E,8E)-[3,7-Dimethyl-9-(2,6,6-trimethyl-1-cyclohexenyl)-nona-2,4,6,8-tetraenoylamino]-(4-bromo)phenylamide [5(c)] | – | ≤ 3.82 |
